Numbered stars: 1 amine (or outer) side, 2 acyl side, 3 side chain; on linkers, the order of the positions; unused ones are H or OH. Bridge positions count the residues as written; N and C are the ends. Square brackets hold non-standard residues; d marks the D form. Peptide text beside a SMILES is read from it. * marks the point of attachment. X4 = CC[C@H](C)[C@@H](N[*:1])[C@@H](O)CC(=O)O[C@@H](C(=O)[C@H](C)C(=O)[*:2])C(C)C; X1 = CC[C@H](C)[C@@H](N[*:1])[C@@H](O)CC(=O)O[C@H](C(=O)[C@H](C)C(=O)[*:2])C(C)C; X3 = CC[C@H](C)[C@H](N[*:1])[C@@H](O)CC(=O)O[C@H](C(=O)[C@H](C)C(=O)[*:2])C(C)C; NMeY = CN[C@@H](Cc1ccc(O)cc1)C(=O)O; aThr = C[C@H](O)[C@H](N)C(=O)O; dNMeL = CN[C@H](CC(C)C)C(=O)O; Isobutyryl = CC(C)C(=O)*; Propionyl = CCC(=O)*
Tests used:
[1] = general procedure: solution-phase peptide synthesis; EDC (symmetrical anhydride)/DMAP; DCC/HOBt; BOP-Cl; DPPA for cyclization
[2] = system: DNA synthesis in Nb2 node lymphoma cells; test: Inhibition of ongoing DNA synthesis in prolactin-stimulated Nb2 cells; assay type: cell-based, rat
Method: Also inhibitions of protein and DNA synthesis of several compounds were measured using Nb2 node lymphoma cells which were stimulated by a treatment of cells with prolactin. (ibid.)
^a Nb2 cells were stimulated with prolactin for 24 h, then exposed to
^b 50% Inhibitory concentration, calculated with linear regression

[3] = system: Nb2 cells, rat T-cell node lymphoma; test: Competitive binding with [3H]didemnin B to Nb2 cells
Method: The immunosuppressive assay was performed by measuring competitive binding of tested compounds with [^3 H]didemnin B to Nb2 cells, rat T-cell node lymphoma. See, Russell, D. H., et al., J. Immunology, 1987, 138, 276-284.
^a Competing didemnins incubated with approximately 25 ng of [^3

Row | Compound | step yield ([1]; late stage modification step) | step yield ([1]; coupling step) | further results
1 | [Hexahydro-N-MePhe^5 ]didemnin B | 32% | – | –
2 | PhePyruv-Pro Didemnin A | – | 85% | final HPLC purity ([1]; coupling step, silica gel TLC, reversed phase HPLC): 96% homogeneity
3 | CC[C@H](C)[C@H]1NC(=O)[C@@H](NC(=O)[C@@H](CC(C)C)N(C)C(=O)[C@@H]2CCCN2C(=O)C(C)O)[C@@H](C)OC(=O)[C@H](Cc2ccc(OC)cc2)N(C)C(=O)[C@@H]2CCCN2C(=O)[C@H](CC(C)C)NC(=O)[C@@H](C)C(=O)[C@H](C(C)C)OC(=O)C[C@@H]1O (stereo partly shown) [Didemnin B (17), Didemnin B, reference compound] | – | – | Ratio, Log IC50 of (DNA/Protein) synthesis [2]: 0.31; Ratio of IC50 of [[3H]didemnin B binding/L1210 growth] [3]: 293
4 | [Hexahydro-N-MePhe^5 ]didemnin A | 31% | – | –
5 | CC[C@H](C)[C@H]1NC(=O)[C@@H](NC(=O)[C@@H](CC(C)C)NC)[C@@H](C)OC(=O)[C@H](Cc2ccc(OC)cc2)N(C)C(=O)[C@@H]2CCCN2C(=O)[C@H](CC(C)C)NC(=O)[C@@H](C)C(=O)[C@@H](C(C)C)OC(=O)C[C@@H]1O [Epididemnin A (15), Epididemnin A] (H-[dNMeL]T[X4]LP[NMeY](Me); ester 2-C) | – | – | Ratio, Log IC50 of (DNA/Protein) synthesis [2]: 3
6 | BOC-Isl(T)-Hip-Leu-Pro-OH | 75% | – | –
7 | [D-Pro^5 ] didemnin A | 90% | – | –
8 | CC[C@H](C)[C@H]1NC(=O)[C@@H](NC(=O)[C@@H](CC(C)C)N(C)C(=O)[C@H]2CCCN2C(=O)C(C)C)[C@@H](C)OC(=O)[C@H](Cc2ccc(OC)cc2)N(C)C(=O)[C@@H]2CCCN2C(=O)[C@H](CC(C)C)NC(=O)[C@@H](C)C(=O)[C@H](C(C)C)OC(=O)C[C@@H]1O [[Isobutyryl^9 -D-Pro^8]didemnin B] (Isobutyryl-[dP][dNMeL]T[X1]LP[NMeY](Me); ester 3-C) | – | – | Ratio of IC50 of [[3H]didemnin B binding/L1210 growth] [3]: 18
9 | [D-Pro^8 ]didemnin B | 97% | – | –
10 | CC[C@H](C)[C@H]1NC(=O)[C@@H](NC(=O)[C@@H](CC(C)C)N(C)C(=O)[C@@H]2CCCN2C(=O)[C@H](C)O)[C@@H](C)OC(=O)[C@H](Cc2ccc(O)cc2)NC(=O)[C@@H]2CCCN2C(=O)[C@H](CC(C)C)NC(=O)[C@@H](C)C(=O)[C@H](C(C)C)OC(=O)C[C@@H]1O [Didemnin N (13), Didemnin N] | – | – | Ratio, Log IC50 of (DNA/Protein) synthesis [2]: -0.70
11 | Z-D-MeLeu-Thr-OTMSe BOC-Isl(T)-Hip-Leu-Pro-D-MeTyr(Me) | – | 59.3% | –
12 | [HexahydroMe2 Tyr^5 ]didemnin B | 19.6% | – | –
13 | Z-D-Me-Leu-Thr-OTMSe BOC-D-Pro-MeTyr(Me) | – | 70% | –
14 | [H2 (2S,3S,4S)Hip^2 ]didemnin B | – | – | step yield ([1]; late stage modification step, conversion): 47% conversion
15 | CC[C@H](C)[C@H]1NC(=O)[C@@H](NC(=O)[C@@H](CC(C)C)N(C)C(=O)[C@@H]2CCCN2C(C)=O)[C@@H](C)OC(=O)[C@H](Cc2ccc(OC)cc2)N(C)C(=O)[C@@H]2CCCN2C(=O)[C@H](CC(C)C)NC(=O)[C@@H](C)C(=O)[C@H](C(C)C)OC(=O)C[C@@H]1O [[Acetyl^9]Didemnin B (103), [Acetyl^9]didemnin B] (Ac-P[dNMeL]T[X1]LP[NMeY](Me); ester 3-C) | – | – | Ratio of IC50 of [[3H]didemnin B binding/L1210 growth] [3]: 315
16 | [Propionyl^9 ]didemnin B | – | 93% | –
17 | CC[C@H](C)[C@H]1NC(=O)[C@@H](NC(=O)[C@@H](CC(C)C)NC)[C@@H](C)OC(=O)[C@H](Cc2ccc(OC)cc2)N(C)C(=O)[C@@H]2CCCN2C(=O)[C@H](CC(C)C)NC(=O)[C@@H](C)C(=O)[C@H](C(C)C)OC(=O)C[C@@H]1O [Didemnin A (1), Didemnin A, reference compound] (H-[dNMeL]T[X1]LP[NMeY](Me); ester 2-C) | – | – | Ratio, Log IC50 of (DNA/Protein) synthesis [2]: 1.45; Ratio of IC50 of [[3H]didemnin B binding/L1210 growth] [3]: 1000
18 | [D-Thr^1 ] DIDEMNIN A | 85% | – | crude purity (method not given) ([1]; late stage modification step, silica gel TLC, reversed phase HPLC): more than 92% pure
19 | [Acetyl^9 ]didemnin B | – | 88% | –
20 | CC[C@H](C)[C@@H]1NC(=O)[C@@H](NC(=O)[C@@H](CC(C)C)N(C)C(C)=O)[C@H](C)OC(=O)[C@H](Cc2ccc(OC)cc2)N(C)C(=O)[C@@H]2CCCN2C(=O)[C@H](CC(C)C)NC(=O)[C@@H](C)C(=O)[C@H](C(C)C)OC(=O)C[C@@H]1O [N-Acetyldidemnin A (54), N-Acetyl didemnin A] (Ac-[dNMeL][aThr][X3]LP[NMeY](Me); ester 2-C) | – | – | Ratio, Log IC50 of (DNA/Protein) synthesis [2]: 0.73; Ratio of IC50 of [[3H]didemnin B binding/L1210 growth] [3]: 190
21 | CCC(=O)N(C)[C@H](CC(C)C)C(=O)N[C@@H]1C(=O)N[C@H]([C@@H](C)CC)[C@@H](O)CC(=O)O[C@@H](C(C)C)C(=O)[C@H](C)C(=O)N[C@@H](CC(C)C)C(=O)N2CCC[C@H]2C(=O)N(C)[C@@H](Cc2ccc(OC)cc2)C(=O)O[C@@H]1C [(N-Propionyl)Didemnin A (98), N-propionyl-didemnin A] (Propionyl-[dNMeL]T[X1]LP[NMeY](Me); ester 2-C) | – | – | Ratio of IC50 of [[3H]didemnin B binding/L1210 growth] [3]: 596
22 | [Isobutyryl^9 ]didemnin B | – | 28% | –
23 | BOC-Isl-(TBDMS)-Hip-Leu-Pro-OTMSE | – | 78% | –
24 | [HexahydroMe2 Tyr^5 ]didemnin A | 34% | – | –
25 | [Isobutyryl^9 -D-Pro^8 ]didemnin B | – | 42% | –
26 | N-(benzyloxycarbonyl-D-prolyl) didemnin A | – | 89% | –
27 | CC[C@H](C)[C@H]1NC(=O)[C@@H](NC(=O)[C@@H](CC(C)C)N(C)C(=O)[C@@H]2CCCN2C(=O)C(C)C)[C@@H](C)OC(=O)[C@H](Cc2ccc(OC)cc2)N(C)C(=O)[C@@H]2CCCN2C(=O)[C@H](CC(C)C)NC(=O)[C@@H](C)C(=O)[C@H](C(C)C)OC(=O)C[C@@H]1O [[Isobutyryl^9]didemnin B] (Isobutyryl-P[dNMeL]T[X1]LP[NMeY](Me); ester 3-C) | – | – | Ratio of IC50 of [[3H]didemnin B binding/L1210 growth] [3]: 485
28 | CC[C@H](C)[C@H]1NC(=O)[C@@H](NC(=O)[C@@H](CC(C)C)NC)[C@@H](C)OC(=O)[C@H](Cc2ccc(OC)cc2)N(C)C(=O)[C@@H]2CCCN2C(=O)[C@H](CC(C)C)NC(=O)[C@@H](C)C(=O)[C@H](C(C)C)OC(=O)C[C@@H]1OC(C)=O [O-Acetyldidemnin A (114), O-Acetyldidemnin A] | – | – | Ratio, Log IC50 of (DNA/Protein) synthesis [2]: -0.57
29 | [L-Ala^8 ]didemnin B | 97% | – | –

From US5294603A (The Board of Trustees of The University of Illinois, priority 1992, dated 1994)
